{"source": "patent US12618846B2", "about": "“Method and device for imaging fluorescent proteins in near- and short-wave infrared” (HELMHOLTZ ZENTRUM MÜNCHEN—DEUTSCHES FORSCHUNGSZENTRUM FÜR …, priority 2019, dated 2026)", "molecules": {"B1": {"name": "tdTomato: tandem-dimer orange/red fluorescent protein derived from Discosoma sp., e.g. SEQ ID NO: 60 (also SEQ ID NO: 1, 7) (protein)", "chain": "MVSKGEEVIKEFMRFKVRMEGSMNGHEFEIEGEGEGRPYEGTQTAKLKVTKGGPLPFAWDILSPQFMYGSKAYVKHPADIPDYKKLSFPEGFKWERVMNFEDGGLVTVTQDSSLQDGTLIYKVKMRGTNFPPDGPVMQKKTMGWEASTERLYPRDGVLKGEIHQALKLKDGGHYLVEFKTIYMAKKPVQLPGYYYVDTKLDITSHNEDYTIVEQYERSEGRHHLFLGHGTGSTGSGSSGTASSEDNNMAVIKEFMRFKVRMEGSMNGHEFEIEGEGEGRPYEGTQTAKLKVTKGGPLPFAWDILSPQFMYGSKAYVKHPADIPDYKKLSFPEGFKWERVMNFEDGGLVTVTQDSSLQDGTLIYKVKMRGTNFPPDGPVMQKKTMGWEASTERLYPRDGVLKGEIHQALKLKDGGHYLVEFKTIYMAKKPVQLPGYYYVDTKLDITSHNEDYTIVEQYERSEGRHHLFLYGMDELYK", "modifications": "tdTomato"}}, "key": {"[1]": {"assay": "SWIR imaging (above 1000 nm) of vials of purified fluorescent proteins, signal per concentration"}, "[2]": {"assay": "Fluorescent protein signal in context of autofluorescence of the lower back of mice", "design": "species or system mouse", "conditions": "inverse of signal over background; minimal protein concentration matching autofluorescence of mouse lower back, above 1000 nm"}}, "note": "Some compounds share one wording; it may come from a single statement.", "data": [{"molecule": "B1", "values": [{"measurement": "signal per conc.", "setting": "[1]; emission above 1000 nm, counts normalised to excitation power [mW/cm^2], exposure time [ms], concentration [mu M], slope of linear fit", "value": "1.72 ± 0.01"}, {"measurement": "emission beyond 1000 nm", "setting": "[1]; excitation 470 nm, 565 nm, 660 nm respectively, InGaAs camera, 1000 nm long-pass", "value": "exhibit emission beyond 1000 nm"}, {"measurement": "autofluorescence equiv. conc.", "setting": "[2]", "value": "0.237 ± 0.05"}]}]}
